Results are given in words; binding and its absence hold for the method and conditions named. Binding seen in cells or lysates may run through a third protein. Some results given as binding are weak or reduced against the parent protein; the word gives no strength. For some assays here: Where a sequence is shown, tags or fusion partners need not be part of it.
Tests used:
[1] = target: T1, KRT80 (human)-3×HA (human) (UniProt Q6KB66); experiment: co-IP; reciprocal, exogenous KRT80-3×HA and VCP-3×Myc co-transfected in 293T cells; primary antibody overnight, protein A/G magnetic beads 2 hours, Western blot
T1 sequence: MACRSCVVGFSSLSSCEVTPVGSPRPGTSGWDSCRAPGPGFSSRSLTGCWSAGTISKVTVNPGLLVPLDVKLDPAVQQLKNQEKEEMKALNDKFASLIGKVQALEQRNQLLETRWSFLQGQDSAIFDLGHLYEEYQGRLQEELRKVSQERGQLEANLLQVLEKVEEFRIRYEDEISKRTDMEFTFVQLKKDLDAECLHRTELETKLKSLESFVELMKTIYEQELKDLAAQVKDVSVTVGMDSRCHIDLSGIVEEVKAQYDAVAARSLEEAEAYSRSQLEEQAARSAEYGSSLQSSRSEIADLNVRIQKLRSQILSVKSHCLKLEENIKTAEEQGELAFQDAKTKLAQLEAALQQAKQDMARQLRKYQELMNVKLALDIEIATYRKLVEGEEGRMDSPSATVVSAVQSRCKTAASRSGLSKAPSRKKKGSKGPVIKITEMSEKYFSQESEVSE

[2] = target: T2, Keratin 80 (human (endogenous in A549)) (UniProt Q6KB66); experiment: co-IP; endogenous proteins in A549 lysate; primary antibody overnight, protein A/G magnetic beads 2 hours, Western blot
T2 sequence: T1 sequence

binding [1]	binding [2]	Substance
binds	–	VCP (human)-3×Myc (from UniProt P55072 1-806)
–	binds	Valosin-containing protein (from UniProt P55072 1-806)
